From patent publication US20230203176A1
No constants are given. Whether binding was seen depends on the method and setting. Some entries that bind do so weakly or less than the wild type.

Key:
pig CD40 (pig) [1] = biological target: T1, pig CD40 (pig) (UniProt Q8SQ34); assay: flow cytometry on pig PBMCs (summary of FIGS. 1-6)
T1 sequence (looked up): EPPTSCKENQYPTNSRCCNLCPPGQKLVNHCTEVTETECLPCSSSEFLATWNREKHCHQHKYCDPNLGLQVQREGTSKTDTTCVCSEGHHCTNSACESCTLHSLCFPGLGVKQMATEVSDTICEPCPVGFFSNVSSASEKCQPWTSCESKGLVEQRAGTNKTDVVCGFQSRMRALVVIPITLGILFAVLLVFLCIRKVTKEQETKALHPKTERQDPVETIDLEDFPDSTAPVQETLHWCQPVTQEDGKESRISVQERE

pig CD40 (pig) [2] = biological target: T1, pig CD40 (pig); assay: flow cytometry on pig PBMCs (FIG. 4 and FIG. 5)
pig CD40 (pig) [3] = biological target: T1, pig CD40 (pig); assay: flow cytometry on pig PBMCs from three pigs (FIG. 4)
pig CD40 (pig) [4] = biological target: T1, pig CD40 (pig); assay: flow cytometry on pig PBMCs
pig CD40 (pig) [5] = biological target: T1, pig CD40 (pig); assay: flow cytometry, CFZ533 and CD21 double stain of pig PBMCs (FIG. 1)
pig CD40 (pig) [6] = biological target: T1, pig CD40 (pig); assay: flow cytometry with AF488- or AF647-labelled CFZ533 on pig PBMCs
pig CD40 (pig) [7] = biological target: T1, pig CD40 (pig); assay: flow cytometry on pig PBMCs from three pigs (FIG. 5)
pig CD40 (pig) [8] = biological target: T1, pig CD40 (pig); assay: binding to cells (FIG. 7), compared with 2C10

Measured: binding

B1: CFZ533 (antibody, human IgG1, kappa, N297A, V domains shown)
VH: QVQLVESGGGVVQPGRSLRLSCAASGFTFSSYGMHWVRQAPGKGLEWVAVISYEESNRYHADSVKGRFTISRDNSKITLYLQMNSLRTEDTAVYYCARDGGIAAPGPDYWGQGTLVTVSS
VL: DIVMTQSPLSLTVTPGEPASISCRSSQSLLYSNGYNYLDWYLQKPGQSPQVLISLGSNRASGVPDRFSGSGSGTDFTLKISRVEAEDVGVYYCMQARQTPFTFGPGTKVDIRR
binds: pig CD40 (pig) [1] | pig CD40 (pig) [2] | pig CD40 (pig) [3] | pig CD40 (pig) [4] | pig CD40 (pig) [5] | pig CD40 (pig) [6] | pig CD40 (pig) [7] | pig CD40 (pig) [8]
